# Measured values from publication PMC5996148.
# The other results are listed elsewhere or left out.
# Assays:
# Assay in all cases: protein microarray (ProtoArray v5.0), streptavidin-Alexa Fluor 647
# Conditions in all cases: 3'-biotin; 20 mM Tris (pH 7.5), 5 mM MgCl2, 100 mM KCl, 0.1% Tween-20, A/T-rich and random oligonucleotide blockers; temperature not stated; high values mean tight binding
# [1] = system: Baculoviral IAP repeat-containing protein 7 (human)
# [2] = system: Band 4.1-like protein 4A (human)
# [3] = system: Bardet-Biedl syndrome 10 protein (human)
# [4] = system: Bcl-2-related proline-rich protein (human)
# [5] = system: Beta-2-microglobulin (human)
# [6] = system: Beta-Ala-His dipeptidase (human)
# [7] = system: Beta-crystallin B3 (human)
# [8] = system: Bifunctional heparan sulfate N-deacetylase/N-sulfotransferase 1 (human)
# [9] = system: Bifunctional protein NCOAT (human)
# [10] = system: Biogenesis of lysosome-related organelles complex 1 subunit 1 (human)
# [11] = system: Brain and acute leukemia cytoplasmic protein (human)
# [12] = system: Branched-chain-amino-acid aminotransferase, mitochondrial (human)
# [13] = system: Breast carcinoma-amplified sequence 4 (human)
# [14] = system: Butyrophilin subfamily 1 member A1 (human)
# [15] = system: Butyrophilin subfamily 2 member A2 (human)
# Bystin (human) = system: Bystin (human)
# [16] = system: C-C motif chemokine 20 (human)
# [17] = system: C-C motif chemokine 22 (human)
# [18] = system: C-C motif chemokine 4 (human)
# [19] = system: C-Maf-inducing protein (human)
sequence,measurement,setting,value
GGGAGGCTGAGGCAGG [G4-1 biotinylated (PQS2)],binding signal,[1],-0.355 z-score
same,binding signal,[2],3.59 z-score
same,binding signal,[3],-0.327 z-score
same,binding signal,[4],-0.355 z-score
same,binding signal,[5],-0.342 z-score
same,binding signal,[6],-0.332 z-score
same,binding signal,[7],-0.333 z-score
same,binding signal,[8],-0.331 z-score
same,binding signal,[9],-0.357 z-score
same,binding signal,[10],-0.348 z-score
same,binding signal,[11],-0.298 z-score
same,binding signal,[12],-0.364 z-score
same,binding signal,[13],-0.353 z-score
same,binding signal,[14],-0.315 z-score
same,binding signal,[15],-0.333 z-score
same,binding signal,Bystin (human),-0.306 z-score
same,binding signal,[16],-0.35 z-score
same,binding signal,[17],-0.337 z-score
same,binding signal,[18],-0.341 z-score
same,binding signal,[19],-0.351 z-score

# Not a retest: an excerpt of the list.
sequence,measurement,setting,value
GGGAGGCTGAGGCAGG [G4-1 biotinylated (PQS2)],binding signal,[4],-0.355 z-score
same,binding signal,[5],-0.342 z-score
same,binding signal,[6],-0.332 z-score
same,binding signal,[7],-0.333 z-score
same,binding signal,[8],-0.331 z-score
